Measurements reported in PubChem BioAssay AID1508588 (Peter MacCallum Cancer Centre, 2020).
In all, the deposit lists about 18,000 reagents; this is an unselected part. 790 of all reagents (4.4%) count as active. 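Calls rest on a combination of fold-change classes in drug and vehicle arms, not all shown here.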 Unmarked entries are inactive. Reagent sequences are not shown.

Assay: 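Genome-wide search for knock-downs that heighten vemurafenib action in melanoma cells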 (primary screen)
Cell system: human WM266.4 melanoma cells (BRAF V600 mutant)
Knock-down reagent: siRNA pool against human genes, 40 nM
Time to read-out: 96 h from transfection to read-out
Treatment: vemurafenib 300 nM (about IC25), added 48 h after transfection, for 48 h; comparison arm got DMSO vehicle only
Detection: 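Cell gain (DAPI nuclei at end minus before drug, mean of two replicates) and medium lactate by absorbance per cell, both as ratio to non-targeting siRNA, also grouped into fold-change classes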
Scale: cell gain with vemurafenib: higher = more cell gain than with non-targeting siRNA; lactate per cell with vemurafenib: higher = more lactate made per cell
Hit rule: 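a knock-down counts as enhancing when its fold-change classes with vehicle and with vemurafenib, taken together, show a stronger drug effect on cell gain or lactate per cell; exact class pairs not stated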
Calls: active = enhances vemurafenib effect; inactive = no enhancement seen

gene knocked down	cell gain with vemurafenib	lactate per cell with vemurafenib
LYG2 (lysozyme g2)	0.52	1.48
TMEM225 (transmembrane protein 225)	1.21	0.57
KLK11 (kallikrein related peptidase 11)	0.32	0.71
LONRF3 (LON peptidase N-terminal domain and ring finger 3)	0.47	1.05
SNTB2 (syntrophin beta 2)	0.41	0.74
RAB30 (RAB30, member RAS oncogene family)	1.11	0.95
SP8 (Sp8 transcription factor)	1.44	0.76
INSRR (insulin receptor related receptor)	0.49	1.32
SLC4A1	0.88	0.72
PPP1R3D (protein phosphatase 1 regulatory subunit 3D)	0.59	1.58
MRPS18C (mitochondrial ribosomal protein S18C)	0.25	0.5
ZNF331 (zinc finger protein 331)	0.26	2.19
DEPDC5 (DEP domain containing 5, GATOR1 subcomplex subunit)	1.03	0.55
DNAJB8 (DnaJ heat shock protein family (Hsp40) member B8)	0.6	0.91
DNASE1 (deoxyribonuclease 1)	0.89	0.73
SCIN (scinderin)	0.65	1.14
RHCG (Rh family C glycoprotein)	0.99	1.27
NEURL3 (neuralized E3 ubiquitin protein ligase 3)	0.97	0.68
BUD31 (BUD31 spliceosome associated protein)	0.95	0.38
ADGRD1 (adhesion G protein-coupled receptor D1)	0.5	1.72
ZNF619 (zinc finger protein 619)	0.94	0.66
DEFB106B (defensin beta 106B)	0.63	1.18
RTN2 (reticulon 2)	0.91	0.8
FAM47B (family with sequence similarity 47 member B)	0.84	0.68
AP5S1 (adaptor related protein complex 5 subunit sigma 1)	0.31	0.74
DCLRE1A (DNA cross-link repair 1A)	0.45	1.52
NELFB (negative elongation factor complex member B)	0.6	0.6
TIMM22 (translocase of inner mitochondrial membrane 22)	0.9	0.68
DNAJC13 (DnaJ heat shock protein family (Hsp40) member C13)	1.03	1.04
TMEM14B (transmembrane protein 14B)	0.08	1.82
COL25A1 (collagen type XXV alpha 1 chain)	0.46	1.15
IFNAR1 (interferon alpha and beta receptor subunit 1)	1.1	0.77
PGAM5	0.6	0.99
FUT6 (fucosyltransferase 6)	0.68	0.78
RNF170 (ring finger protein 170)	1.01	1.14
GABRA1 (gamma-aminobutyric acid type A receptor subunit alpha1)	0.64	0.99
EDN1 (endothelin 1)	0.57	0.26
MED13 (mediator complex subunit 13)	0.7	0.7
AIFM3 (AIF family member 3)	0.38	1.01
ZFP28 (ZFP28 zinc finger protein)	0.76	0.65
DPT (dermatopontin)	0.13	1.66
CLIC6 (CLIC family member 6)	0.64	0.66
USP17L2 (ubiquitin specific peptidase 17 like family member 2)	0.65	0.98
HJURP (Holliday junction recognition protein)	0.35	1.38
RIN3 (Ras and Rab interactor 3)	1.09	0.72
VPS37B (VPS37B subunit of ESCRT-I)	0.66	1.73
IKZF3 (IKAROS family zinc finger 3)	0.94	0.55
CD28 (CD28 molecule)	0.75	1.19
ANKIB1 (ankyrin repeat and IBR domain containing 1)	1.05	0.9
VIPR1 (vasoactive intestinal peptide receptor 1)	0.32	1.92
ATXN7L2 (ataxin 7 like 2)	0.41	1.63
SLC16A11	0.62	1.72
IKZF4 (IKAROS family zinc finger 4)	0.33	0.62
HEATR3 (HEAT repeat containing 3)	0.59	0.48
PUM1 (pumilio RNA binding family member 1)	0.17	1.5

Reformatted: results already given.
PGAM5
- cell gain with vemurafenib: 0.6
- lactate per cell with vemurafenib: 0.99

FUT6 (fucosyltransferase 6)
- cell gain with vemurafenib: 0.68
- lactate per cell with vemurafenib: 0.78

RNF170 (ring finger protein 170)
- cell gain with vemurafenib: 1.01
- lactate per cell with vemurafenib: 1.14

GABRA1 (gamma-aminobutyric acid type A receptor subunit alpha1)
- cell gain with vemurafenib: 0.64
- lactate per cell with vemurafenib: 0.99

EDN1 (endothelin 1)
- cell gain with vemurafenib: 0.57
- lactate per cell with vemurafenib: 0.26

MED13 (mediator complex subunit 13)
- cell gain with vemurafenib: 0.7
- lactate per cell with vemurafenib: 0.7

AIFM3 (AIF family member 3)
- cell gain with vemurafenib: 0.38
- lactate per cell with vemurafenib: 1.01

ZFP28 (ZFP28 zinc finger protein)
- cell gain with vemurafenib: 0.76
- lactate per cell with vemurafenib: 0.65

DPT (dermatopontin)
- cell gain with vemurafenib: 0.13
- lactate per cell with vemurafenib: 1.66

CLIC6 (CLIC family member 6)
- cell gain with vemurafenib: 0.64
- lactate per cell with vemurafenib: 0.66

USP17L2 (ubiquitin specific peptidase 17 like family member 2)
- cell gain with vemurafenib: 0.65
- lactate per cell with vemurafenib: 0.98

HJURP (Holliday junction recognition protein)
- cell gain with vemurafenib: 0.35
- lactate per cell with vemurafenib: 1.38

RIN3 (Ras and Rab interactor 3)
- cell gain with vemurafenib: 1.09
- lactate per cell with vemurafenib: 0.72

The listing continues.
gene knocked down	cell gain with vemurafenib	lactate per cell with vemurafenib
ALG10 (ALG10 alpha-1,2-glucosyltransferase)	0.63	0.99
ENO2 (enolase 2)	0.74	1.24
TM6SF1 (transmembrane 6 superfamily member 1)	0.22	0.97
NPRL2 (NPR2 like, GATOR1 complex subunit)	0.88	0.55
VSTM2A (V-set and transmembrane domain containing 2A)	0.63	0.92
FSTL5 (follistatin like 5)	0.85	0.6
SMOC2 (SPARC related modular calcium binding 2)	0.35	0.69
CALHM6 (calcium homeostasis modulator family member 6)	0.59	0.78
ADGRG6 (adhesion G protein-coupled receptor G6)	0.86 (active)	0.47
ACTRT2 (actin related protein T2)	0.65	1.19
DLX6 (distal-less homeobox 6)	0.28	2.17
HNRNPH3 (heterogeneous nuclear ribonucleoprotein H3)	0.16	0.5
RIMKLA (ribosomal modification protein rimK like family member A)	0.49	1.69
FBXW5 (F-box and WD repeat domain containing 5)	0.66	0.44
CCDC27 (coiled-coil domain containing 27)	0.89	0.52
ATP5MK (ATP synthase membrane subunit k)	0.86	0.99
ZNF800 (zinc finger protein 800)	0.78	1.16
DNALI1 (dynein axonemal light intermediate chain 1)	0.35	0.84
ETAA1 (ETAA1 activator of ATR kinase)	0.52	0.78
PRR5 (proline rich 5)	0.87	0.88
TRIL (TLR4 interactor with leucine rich repeats)	1.06	0.76
XXYLT1 (xyloside xylosyltransferase 1)	0.42	1.08
MYO1B (myosin IB)	0.67	0.89
KLHL15 (kelch like family member 15)	0.54	1.28
GPR143 (G protein-coupled receptor 143)	0.9	1
DNAH7 (dynein axonemal heavy chain 7)	0.73	0.72
PKP2 (plakophilin 2)	0.86	0.68
USP20 (ubiquitin specific peptidase 20)	0.32	0.93
NEK11 (NIMA related kinase 11)	0.22	0.96
